These are yes or no findings as the source states them, for the method shown. In cells and extracts the contact can be indirect. A yes stands for co-enrichment or nearness to the bait. Other partners may have been found.

The values that follow come from PMC4039143.

In the assay the target is C-terminally V5-tagged AMF (human) (UniProt P06744). Put plainly: affinity purification with mass spectrometry; extracts of HEK293T cells overexpressing AMF-V5 loaded on anti-V5-coupled magnetic beads; immunocomplex resolved by SDS-PAGE; all bands except AMF-V5 subjected to LC-MS/MS.

As to “TRIM25 (tripartite motif-containing protein 25), found with AMF-V5 in HEK293T extract (from UniProt Q14258 1-630)”, the binding entry was “binds”.
